These are yes or no findings as the source states them, for the method shown. In cells and extracts the contact can be indirect. Here binding means that the protein was enriched with, or labelled near, the bait; the list need not be complete. Tags and fused reporters may be left off the sequences shown.

Chains of the proteins cited; added tags and fusions are not shown. Lines headed by an entry give the natural chain unless they say otherwise; changes in a name come on top. A line that says so, or that is headed by a name, gives the form on record, which may keep a tag or linker.
YFP-tagged PML-V (P29590, form named): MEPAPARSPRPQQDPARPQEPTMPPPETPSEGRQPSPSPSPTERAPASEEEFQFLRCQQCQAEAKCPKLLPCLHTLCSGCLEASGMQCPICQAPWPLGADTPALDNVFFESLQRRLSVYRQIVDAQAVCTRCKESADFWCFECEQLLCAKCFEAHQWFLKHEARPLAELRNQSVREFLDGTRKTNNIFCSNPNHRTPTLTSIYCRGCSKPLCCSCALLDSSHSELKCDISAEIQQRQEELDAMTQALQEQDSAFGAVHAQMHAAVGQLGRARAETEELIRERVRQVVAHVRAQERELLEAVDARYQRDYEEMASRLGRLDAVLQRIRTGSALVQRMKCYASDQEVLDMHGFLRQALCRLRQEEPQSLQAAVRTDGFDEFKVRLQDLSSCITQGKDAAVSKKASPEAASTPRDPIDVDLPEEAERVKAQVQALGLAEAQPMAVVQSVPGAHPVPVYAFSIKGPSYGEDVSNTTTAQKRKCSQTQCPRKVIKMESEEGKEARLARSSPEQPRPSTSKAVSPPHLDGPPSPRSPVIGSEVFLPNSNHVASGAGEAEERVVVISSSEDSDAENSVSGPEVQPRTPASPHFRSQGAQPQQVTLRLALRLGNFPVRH

For the assay, the target named is YFP-tagged PML-V (UniProt P29590). As to the kind of experiment: affinity purification with mass spectrometry; U2OS PML-KO/YFP–PML cells in SILAC medium, 1 µM arsenic for 2 h (heavy) or untreated (light); PML bodies enriched with GFP nanobody crosslinked to magnetic beads; a single experiment.

B1: TOPORS (endogenous, U2OS PML-KO/YFP–PML cells) (protein, UniProt Q9NS56 1-1045)
chain: MGSQPPLGSPLSREEGEAPPPAPASEGRRRSRRVRLRGSCRHRPSFLGCRELAASAPARPAPASSEIMASAAKEFKMDNFSPKAGTSKLQQTVPADASPDSKCPICLDRFDNVSYLDRCLHKFCFRCVQEWSKNKAECPLCKQPFDSIFHSVRAEDDFKEYVLRPSYNGSFVTPDRRFRYRTTLTRERNASVYSPSGPVNRRTTTPPDSGVLFEGLGISTRPRDVEIPQFMRQIAVRRPTTADERSLRKIQEQDIINFRRTLYRAGARVRNIEDGGRYRDISAEFFRRNPACLHRLVPWLKRELTVLFGAHGSLVNIVQHIIMSNVTRYDLESQAFVSDLRPFLLNRTEHFIHEFISFARSPFNMAAFDQHANYDCPAPSYEEGSHSDSSVITISPDEAETQELDINVATVSQAPWDDETPGPSYSSSEQVHVTMSSLLNTSDSSDEELVTGGATSQIQGVQTNDDLNNDSDDSSDNCVIVGFVKPLAERTPELVELSSDSEDLGSYEKMETVKTQEQEQSYSSGDSDVSRCSSPHSVLGKDEQINKGHCDSSTRIKSKKEEKRSTSLSSPRNLNSSVRGDRVYSPYNHRHRKRGRSRSSDSRSQSRSGHDQKNHRKHHGKKRMKSKRSRSRESSRPRGRRDKKRSRTRDSSWSRRSQTLSLSSESTSRSRSRSSDHGKRRSRSRNRDRYYLRNNYGSRYKWEYTYYSRNKDRDGYESSYRRRTLSRAHYSRQSSSPEFRVQSFSERTNARKKNNHSERKYYYYERHRSRSLSSNRSRTASTGTDRVRNEKPGGKRKYKTRHLEGTNEVAQPSREFASKAKDSHYQKSSSKLDGNYKNESDTFSDSRSSDRETKHKRRKRKTRSLSVEIVYEGKATDTTKHHKKKKKKHKKKHKKHHGDNASRSPVVITIDSDSDKDSEVKEDTECDNSGPQDPLQNEFLAPSLEPFETKDVVTIEAEFGVLDKECDIATLSNNLNNANKTVDNIPPLAASVEQTLDVREESTFVSDLENQPSNIVSLQTEPSRQLPSPRTSLMSVCLGRDCDMS
Consider B1, for which the binding result was “binds”.

Values taken from paper PMC11402782.
